Results from one PubChem assay

The results are deposited in PubChem (AID1159506; NCATS, 2015).

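Genome-wide siRNA knockdown in TC32 Ewing sarcoma cells, comparing luciferase light from an NR0B1-promoter reporter with a CMV-promoter reporter 48 hours after transfection. Each siRNA was applied at 20 nM. A z-score of the log NR0B1-over-CMV signal, less the median of siRNAs with the same seed; more negative means a stronger specific loss of the NR0B1 reporter.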

The strongest results of the screen are mostly left out here. Sequences are the guide (antisense) strand, without overhang.

- UUUGGUAACCACGGAGUUG against PQBP1 | seed-corrected z-score -0.9757
- UAUAAAUCUCAUCCUGUGC against DGKZ | seed-corrected z-score -1.053
- UCUUUCUUGGGUUUCAUCC against LAD1 | seed-corrected z-score -0.0444
- UUUAAUUCCACAAAAACUC against BORCS6 | seed-corrected z-score 0.5721
- AAAGUGCACCUGACAGUAC against TNFSF12 | seed-corrected z-score 0.134
- UCGGAUUUCACAACCAGGC against ABHD18 | seed-corrected z-score 0.1739
- UUUGCAGAGAAGUCACUGC against DCAF4L2 | seed-corrected z-score -0.004096
- UUUCUUCCCAGACAAGUAG against OR2M4 | seed-corrected z-score -0.4135
- UAGACGAUCAGGUUGGUCU against SHISA9 | seed-corrected z-score -0.8049
- UCUCGAAGAACGGUUAUGU against GTPBP2 | seed-corrected z-score 0.9332
- UUUACUACUUGACUCAACC against WDR78 | seed-corrected z-score 0.4026
- UAUUGUUAUAGACAUCUAG against PPP3CC | seed-corrected z-score 1.719
- UGAGCAGCGACCAUAUCUG against PCED1A | seed-corrected z-score -0.465
- AAAGUCAACAUGCAACUUG against MRPS18B | seed-corrected z-score 0.6104
- AUAACGAACAGUAUCCUCC against ARHGAP24 | seed-corrected z-score 0.08019
- AAGCCUAUAAGGUCCCUGG against LRCH1 | seed-corrected z-score -0.319
- UCCAUUUCAUGCUUCCUCU against SIGLEC8 | seed-corrected z-score -0.2553
- AAACUUAUUAACUUCAACC against GPHN | seed-corrected z-score 0.0975
- UUAGGUUUAAGAGGAUUAC against C10orf25 | seed-corrected z-score 1.063
- AAAAUGUCCCUCUCUUUUG against IDNK | seed-corrected z-score 0.1773
- UCUUCAGACAUGUCACUUC against GRAMD1A | seed-corrected z-score 0.04948
- UAAGUUGAGGGACUCCUCC against ETV7 | seed-corrected z-score 1.08
- UCUUGUAAAUCGUUAAAUG against RAP1BL | seed-corrected z-score 0.1402
- UUGCGUAUUCAUAUAGUGC against AUP1 | seed-corrected z-score -0.7182
- AUGCUGAUGAUGACGAGGG against CLDN4 | seed-corrected z-score 0.0338
- UGUCUGUCAAUAGCUCCUC against GRAMD1A | seed-corrected z-score 0.2324
- UGCAUAGCUACAAAGAAGC against FLJ16423 | seed-corrected z-score 0.2916
- UUCUUCACUACAAUGUCUC against CDY2A | seed-corrected z-score -0.3714
- AUAGUAUUCCGACUCGGUG against TGFB3 | seed-corrected z-score -0.672
- UUAUCGUCCGUGGACUUGG against DENND3 | seed-corrected z-score 0.7497
- UAGCGGUAAGGUGUGCUGG against PREB | seed-corrected z-score -0.8186
- UAUCUAAUGACCUUGUUGC against FSD1L | seed-corrected z-score -0.1119
- UUCGUUCCUGGUAAUCAUC against CAPRIN1 | seed-corrected z-score -0.8276
- UCCAGUUUGAAAGCAAUCA against PCBP4 | seed-corrected z-score -1.493
- AACAUUUUAACCCUGGUCC against APOC4 | seed-corrected z-score 1.847
- UUCUUCACUUGAGAACACU against SMIM24 | seed-corrected z-score -0.6158
- ACAGAUAUGGAGGUGCUGG against PIEZO1P1 | seed-corrected z-score -1.149
- UUUUGUCUAAGCCGUAAGC against HSPA8 | seed-corrected z-score 0.04034
- AAAAAUCAAUGUAGCAUCC against FKBP7 | seed-corrected z-score -0.1313
- UUGAGUGACUCUUCCAAGG against IFNL1 | seed-corrected z-score 0.8395
- UCUACUUCCACGUAAGUCC against PLCB1 | seed-corrected z-score 0.1901
- UAGAGCUCGAGGUUGAUCU against FTMT | seed-corrected z-score -0.5928
- UAUCCAACAUGUCAAUUUC against ANXA4 | seed-corrected z-score -0.5819
- UAAAAUUCAAAUCCAUUGC against PGP | seed-corrected z-score 0.7108
- UGUGUACACUGUGUCAAGA against LOC102724699 | seed-corrected z-score 0.3305

The last 4 entries again:

siRNA,gene,seed-corrected z-score
UAGAGCUCGAGGUUGAUCU,FTMT,-0.5928
UAUCCAACAUGUCAAUUUC,ANXA4,-0.5819
UAAAAUUCAAAUCCAUUGC,PGP,0.7108
UGUGUACACUGUGUCAAGA,LOC102724699,0.3305